# The list shows a part of the results. Further columns of the screen follow, without active or inactive calls. The list favours compounds with an active or inconclusive main result. The note in brackets gives the kind of curve behind each potency; many fits are weak.
# Assay: qHTS Assay for Lipid Storage Modulators in Drosophila S3 Cells;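 on cell number change: cells counted by Cell Tracker Red CMTPX staining in the red channel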
# Conditions: BODIPY lipid droplet fluorescence, 18-24 h; for cell number change: measured here: cell count max response, cells fed with added oleic acid
# Summary of the method: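 Laser-scanning cytometry quantifies lipid droplet accumulation (500–530 nm total intensity; droplet/cell object ratio) in oleic acid-fed (400 uM added) Drosophila S3 cells treated with a concentration series. 20 uM Triacsin C defined 100% inhibition.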
# [1] = measured here: cell number channel AC50, cells fed with added oleic acid
# [2] = measured here: lipid fluorescence (Fed channel) AC50, cells fed with added oleic acid
Structure (SMILES),cell number change,AC50 [1],AC50 [2]
C=C(C)[C@@H]1CC=C(CN2CCN(Cc3ccccc3)CC2)CC1,-57%,"25.9 µM [falling, single point]","18.4 µM [falling, single point]"
COc1ccc(Cn2c(=O)[nH]c3cc(C(=O)NC4CCN(Cc5ccccc5)CC4)ccc32)cc1,-20.9%,–,"0.231 µM [falling, full curve, poor fit]"
O=C(Oc1cccc(C(=S)N2CCOCC2)c1)c1ccc([N+](=O)[O-])cc1[N+](=O)[O-],-6.25%,–,–
CC1Cc2ccccc2N1C(=O)COC(=O)CNC(=O)c1ccc(Br)o1 (stereo not drawn),6.02%,–,"6.51 µM [rising, partial curve, poor fit]"
O=C(/C=C/c1cccs1)N1CCN(Cc2ccc3c(c2)OCO3)CC1,-58.5%,"29.1 µM [falling, single point]","2.59 µM [rising, partial curve]"
COc1ccccc1OCCNC(=O)C(CCSC)NC(=O)COc1ccccc1 (stereo not drawn),14.1%,"0.00461 µM [rising, full curve, poor fit]",–
COc1cc2c(cc1OC)C(COc1ccccc1OC)N(C(=O)C(C)C)CC2 (stereo not drawn),-23.4%,–,"25.9 µM [falling, partial curve]"
Cc1ccc(C(=O)Nc2ccc(S(=O)(=O)Nc3cnc4ccccc4n3)cc2)cc1,-9.68%,–,"29.1 µM [falling, single point]"
Cc1nnc(NC(=O)C2CCCN2C(=O)Nc2ccccc2)s1 (stereo not drawn),12.4%,–,"3.26 µM [rising, full curve]"
CC(=O)Nc1ccc(NC(=O)C(C)OC(=O)/C=C/c2cn(-c3ccccc3)nc2-c2cccnc2)cc1 (stereo not drawn),-30.9%,–,"29.1 µM [falling, single point]"
CS(=O)(=O)c1ccc(Cl)c(C(=O)Nc2ccc3nc(N4CCOCC4)sc3c2)c1,32.5%,"29.1 µM [rising, single point]","23.1 µM [falling, single point]"
CC(=O)c1cc(C(=O)NC2CCCc3c2cnn3-c2cc(C)cc(C)c2)[nH]n1 (stereo not drawn),-30.1%,"3.66 µM [falling, full curve]","0.291 µM [falling, full curve]"
Cc1nn(Cc2ccccc2)c(C)c1NC(=O)CSc1nc(C2CC2)nc2c1cnn2-c1ccccc1,–,"0.411 µM [rising, full curve]","0.291 µM [rising, full curve]"
CC(NCc1ccc(-c2ccccc2)cc1)C(O)c1ccccc1 (stereo not drawn),-65.4%,"29.1 µM [falling, single point]",–
COc1cc(C(=O)N2CCc3ccccc32)c([N+](=O)[O-])cc1OC,22.3%,–,–
COc1cccc(OC)c1-c1nnc(-c2cn(C)c3ccccc23)o1,31.9%,"0.517 µM [rising, full curve, poor fit]",–
COc1cc2c(cc1NC(=O)c1ccccc1F)CCCC2,7.11%,–,"2.59 µM [rising, partial curve]"
CCN=C1S/C(=C\c2cn(C(C)=O)nc2-c2ccccc2)C(=O)N1CC,-19.2%,–,"32.6 µM [falling, single point]"

# Part of the list above, limited to AC50 [2] and cell number change:
Structure (SMILES)	AC50 [2]	cell number change
CC1Cc2ccccc2N1C(=O)COC(=O)CNC(=O)c1ccc(Br)o1 (stereo not drawn)	6.51 µM [rising, partial curve, poor fit]	6.02%
CCN=C1S/C(=C\c2cn(C(C)=O)nc2-c2ccccc2)C(=O)N1CC	32.6 µM [falling, single point]	-19.2%

# Next part.

Structure (SMILES),cell number change,AC50 [1],AC50 [2]
CC(=O)c1ccc(OCCCC(=O)OCC(=O)N2CCN(c3ccccc3)CC2)cc1,13.2%,–,"6.51 µM [rising, single point]"
O=C(Nn1c(-c2ccncc2)nc2ccccc2c1=O)c1ccc(Br)cc1,-20.9%,"0.291 µM [falling, full curve, poor fit]",–
CCOC(=O)Cc1c(Cl)c2ccccc2[nH]c1=O,-13.1%,"1.16 µM [falling, single point]","1.46 µM [falling, single point]"
O=C(NCCCN1CCCC1=O)C(=O)NCC1OCCCN1S(=O)(=O)c1cc(F)ccc1F (stereo not drawn),–,"0.164 µM [rising, full curve, poor fit]","18.4 µM [rising, single point]"
Cc1ccc(NC(=O)NC(=O)CSc2nnc(-c3ccc(Cl)cc3Cl)n2N)c(C)c1,-34.4%,"25.9 µM [falling, single point]","25.9 µM [falling, single point]"
COc1ccc(OCC(=O)NS(=O)(=O)c2ccc(Cl)cc2)cc1,18.3%,–,–
COC(=O)c1cc(COC(=O)c2ccc(OC)c(S(=O)(=O)N3CCCC3)c2)oc1C,8.55%,–,–
O=C(Nc1ccc2c(c1)C(=O)NC2=O)c1cccc(C(F)(F)F)c1,8.38%,–,"16.4 µM [rising, single point]"
CN(C)C(=S)NC(=O)C12CC3(C)CC(C)(CC(C)(C3)C1)C2,-14.4%,–,"2.06 µM [rising, partial curve]"
COc1ccc(N2C(=O)CSC2c2ccc([N+](=O)[O-])cc2)cc1 (stereo not drawn),17.4%,–,"16.4 µM [rising, single point]"
Cc1ccc(NC(=O)C2CCN(S(=O)(=O)c3ccc(F)cc3)CC2)cc1,9.81%,–,"29.1 µM [rising, single point]"
Cc1ccc(NC(=O)c2c3c(nc4ccccc24)CCC3)cc1,22.2%,–,–
Cc1ccc(CN(C)C(=O)COC(=O)CSc2ccc(C(N)=O)cc2[N+](=O)[O-])cc1,-8.46%,–,"0.00461 µM [rising, full curve, poor fit]"
O=S(=O)(Nc1cccc(-c2ccc(N3CCCCCC3)nn2)c1)c1ccc(F)cc1,26.9%,–,–
COc1ccc(C)cc1N(C(=O)CNC(=O)c1ccco1)C(C(=O)NCC1CCCO1)c1ccccc1 (stereo not drawn),1.3%,–,"6.51 µM [falling, single point]"
CCOC(=O)c1cnc(SC)nc1Oc1cccc(NS(=O)(=O)c2ccc(C)cc2)c1,25.6%,–,"0.517 µM [rising, full curve]"
CCCCNC(=O)c1onc(CCl)c1C(=O)OC,19.5%,–,"5.8 µM [rising, full curve, poor fit]"
C=CCn1c(C)cc(C(=O)COC(=O)/C=C/c2ccc(OC)cc2)c1C,108%,"11.6 µM [rising, partial curve]","13 µM [rising, partial curve]"

# Reference: PubChem BioAssay AID2685 (National Center for Advancing Translational Sciences (NCATS), 2010)
